Results: publication PMC12448318
These are yes or no findings as the source states them, for the method shown. In cells and extracts the contact can be indirect. Binding calls can cover weak binding; strength is not graded here.

Chains of the proteins cited; added tags and fusions are not shown.
UniProt Q18246: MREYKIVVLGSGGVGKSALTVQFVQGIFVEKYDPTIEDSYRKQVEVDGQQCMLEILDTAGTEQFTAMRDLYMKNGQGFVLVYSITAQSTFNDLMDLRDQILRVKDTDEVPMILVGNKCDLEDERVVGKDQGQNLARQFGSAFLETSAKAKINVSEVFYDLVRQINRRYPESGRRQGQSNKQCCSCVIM

Molecular target: TIAM-1::mGFP (C. elegans) (UniProt O01847)
Test: FRET or BRET; FRET-FLIM in vivo: TIAM-1::mGFP (donor) with RAP-1::mCherry or free mCherry (acceptor) in cholinergic neurons, dorsal cord of L4 animals, 20°C; mean lifetime of mGFP

- binding: binds
Substance: RAP-1::mCherry (from UniProt Q18246 1-188)
